Sequences of proteins named here, by UniProt entry; tags and fusion partners are left off. A change or cut given only in a name is not applied to a line headed by its entry.
UniProt A6NED2: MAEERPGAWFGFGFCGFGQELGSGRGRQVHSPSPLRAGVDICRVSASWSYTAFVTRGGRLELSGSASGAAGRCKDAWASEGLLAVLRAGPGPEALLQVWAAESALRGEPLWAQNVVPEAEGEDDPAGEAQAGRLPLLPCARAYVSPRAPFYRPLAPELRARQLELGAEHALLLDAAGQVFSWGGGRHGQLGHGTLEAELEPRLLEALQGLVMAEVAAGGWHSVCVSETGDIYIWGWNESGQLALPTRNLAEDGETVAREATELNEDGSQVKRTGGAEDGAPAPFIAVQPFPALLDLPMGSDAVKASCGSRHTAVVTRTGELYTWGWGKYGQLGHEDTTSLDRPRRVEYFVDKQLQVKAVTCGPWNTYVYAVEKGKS
UniProt A6NI28: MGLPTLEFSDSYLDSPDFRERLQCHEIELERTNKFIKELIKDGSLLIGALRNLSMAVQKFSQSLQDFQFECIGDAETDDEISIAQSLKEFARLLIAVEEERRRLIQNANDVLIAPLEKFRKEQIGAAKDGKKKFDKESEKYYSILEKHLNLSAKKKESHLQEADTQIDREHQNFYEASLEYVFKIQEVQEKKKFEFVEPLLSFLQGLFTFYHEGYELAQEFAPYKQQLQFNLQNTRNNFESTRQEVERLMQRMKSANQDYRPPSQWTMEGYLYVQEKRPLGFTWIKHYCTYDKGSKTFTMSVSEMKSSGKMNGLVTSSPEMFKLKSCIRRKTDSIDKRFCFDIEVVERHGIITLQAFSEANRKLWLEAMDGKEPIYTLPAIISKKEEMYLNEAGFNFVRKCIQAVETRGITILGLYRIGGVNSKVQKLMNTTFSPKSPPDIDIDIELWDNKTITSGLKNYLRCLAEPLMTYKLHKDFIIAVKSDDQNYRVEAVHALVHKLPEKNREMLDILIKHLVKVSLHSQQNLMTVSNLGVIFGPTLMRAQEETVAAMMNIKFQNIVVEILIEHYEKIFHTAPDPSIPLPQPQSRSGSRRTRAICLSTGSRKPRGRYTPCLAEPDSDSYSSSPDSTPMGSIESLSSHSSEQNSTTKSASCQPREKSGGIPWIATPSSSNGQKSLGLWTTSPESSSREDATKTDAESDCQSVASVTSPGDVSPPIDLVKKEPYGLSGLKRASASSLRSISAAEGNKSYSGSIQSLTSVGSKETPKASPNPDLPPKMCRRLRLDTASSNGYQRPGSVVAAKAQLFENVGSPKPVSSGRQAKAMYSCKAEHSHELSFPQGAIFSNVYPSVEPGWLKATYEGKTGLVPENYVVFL
UniProt A6ND36: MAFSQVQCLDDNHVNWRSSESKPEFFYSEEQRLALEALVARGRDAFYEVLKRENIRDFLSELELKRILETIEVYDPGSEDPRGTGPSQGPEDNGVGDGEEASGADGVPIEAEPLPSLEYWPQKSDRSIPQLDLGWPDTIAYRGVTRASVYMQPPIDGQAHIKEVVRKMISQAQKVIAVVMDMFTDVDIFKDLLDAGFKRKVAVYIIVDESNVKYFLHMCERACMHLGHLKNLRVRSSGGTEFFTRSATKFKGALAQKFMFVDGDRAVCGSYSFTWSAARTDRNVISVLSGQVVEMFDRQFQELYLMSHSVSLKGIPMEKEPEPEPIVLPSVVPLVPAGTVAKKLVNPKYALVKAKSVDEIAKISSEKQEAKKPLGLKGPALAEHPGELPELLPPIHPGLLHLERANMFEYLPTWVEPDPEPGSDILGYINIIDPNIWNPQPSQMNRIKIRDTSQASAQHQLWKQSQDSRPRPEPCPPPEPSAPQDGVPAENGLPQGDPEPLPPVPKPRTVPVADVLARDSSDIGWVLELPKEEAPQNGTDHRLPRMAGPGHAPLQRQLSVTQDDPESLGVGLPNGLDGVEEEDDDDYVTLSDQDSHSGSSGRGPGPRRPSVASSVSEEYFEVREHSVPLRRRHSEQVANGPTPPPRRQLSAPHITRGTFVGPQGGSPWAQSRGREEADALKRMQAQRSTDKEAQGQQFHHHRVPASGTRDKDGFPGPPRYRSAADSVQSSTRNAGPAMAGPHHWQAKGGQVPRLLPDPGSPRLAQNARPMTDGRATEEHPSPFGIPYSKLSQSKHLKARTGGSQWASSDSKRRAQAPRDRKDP
UniProt A6NHQ2: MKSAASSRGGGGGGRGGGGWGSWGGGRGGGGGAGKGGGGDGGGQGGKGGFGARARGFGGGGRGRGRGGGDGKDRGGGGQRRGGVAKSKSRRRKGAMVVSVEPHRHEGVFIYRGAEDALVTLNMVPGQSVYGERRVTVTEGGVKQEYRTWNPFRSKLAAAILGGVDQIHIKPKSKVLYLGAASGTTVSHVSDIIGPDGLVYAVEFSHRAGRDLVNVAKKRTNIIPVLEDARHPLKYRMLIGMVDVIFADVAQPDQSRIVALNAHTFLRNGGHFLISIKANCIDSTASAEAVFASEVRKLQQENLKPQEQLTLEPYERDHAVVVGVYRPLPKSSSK
UniProt A8K0S8: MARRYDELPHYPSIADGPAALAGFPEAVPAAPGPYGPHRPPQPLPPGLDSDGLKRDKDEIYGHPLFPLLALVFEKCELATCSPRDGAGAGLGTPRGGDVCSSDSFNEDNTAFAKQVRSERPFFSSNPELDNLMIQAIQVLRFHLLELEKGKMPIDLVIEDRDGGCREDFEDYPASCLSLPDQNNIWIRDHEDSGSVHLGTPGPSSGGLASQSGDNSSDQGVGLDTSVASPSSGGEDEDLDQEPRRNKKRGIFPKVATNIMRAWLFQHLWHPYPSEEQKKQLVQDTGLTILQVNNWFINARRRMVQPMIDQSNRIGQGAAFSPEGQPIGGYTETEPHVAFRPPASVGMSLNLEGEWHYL
UniProt A6NE01: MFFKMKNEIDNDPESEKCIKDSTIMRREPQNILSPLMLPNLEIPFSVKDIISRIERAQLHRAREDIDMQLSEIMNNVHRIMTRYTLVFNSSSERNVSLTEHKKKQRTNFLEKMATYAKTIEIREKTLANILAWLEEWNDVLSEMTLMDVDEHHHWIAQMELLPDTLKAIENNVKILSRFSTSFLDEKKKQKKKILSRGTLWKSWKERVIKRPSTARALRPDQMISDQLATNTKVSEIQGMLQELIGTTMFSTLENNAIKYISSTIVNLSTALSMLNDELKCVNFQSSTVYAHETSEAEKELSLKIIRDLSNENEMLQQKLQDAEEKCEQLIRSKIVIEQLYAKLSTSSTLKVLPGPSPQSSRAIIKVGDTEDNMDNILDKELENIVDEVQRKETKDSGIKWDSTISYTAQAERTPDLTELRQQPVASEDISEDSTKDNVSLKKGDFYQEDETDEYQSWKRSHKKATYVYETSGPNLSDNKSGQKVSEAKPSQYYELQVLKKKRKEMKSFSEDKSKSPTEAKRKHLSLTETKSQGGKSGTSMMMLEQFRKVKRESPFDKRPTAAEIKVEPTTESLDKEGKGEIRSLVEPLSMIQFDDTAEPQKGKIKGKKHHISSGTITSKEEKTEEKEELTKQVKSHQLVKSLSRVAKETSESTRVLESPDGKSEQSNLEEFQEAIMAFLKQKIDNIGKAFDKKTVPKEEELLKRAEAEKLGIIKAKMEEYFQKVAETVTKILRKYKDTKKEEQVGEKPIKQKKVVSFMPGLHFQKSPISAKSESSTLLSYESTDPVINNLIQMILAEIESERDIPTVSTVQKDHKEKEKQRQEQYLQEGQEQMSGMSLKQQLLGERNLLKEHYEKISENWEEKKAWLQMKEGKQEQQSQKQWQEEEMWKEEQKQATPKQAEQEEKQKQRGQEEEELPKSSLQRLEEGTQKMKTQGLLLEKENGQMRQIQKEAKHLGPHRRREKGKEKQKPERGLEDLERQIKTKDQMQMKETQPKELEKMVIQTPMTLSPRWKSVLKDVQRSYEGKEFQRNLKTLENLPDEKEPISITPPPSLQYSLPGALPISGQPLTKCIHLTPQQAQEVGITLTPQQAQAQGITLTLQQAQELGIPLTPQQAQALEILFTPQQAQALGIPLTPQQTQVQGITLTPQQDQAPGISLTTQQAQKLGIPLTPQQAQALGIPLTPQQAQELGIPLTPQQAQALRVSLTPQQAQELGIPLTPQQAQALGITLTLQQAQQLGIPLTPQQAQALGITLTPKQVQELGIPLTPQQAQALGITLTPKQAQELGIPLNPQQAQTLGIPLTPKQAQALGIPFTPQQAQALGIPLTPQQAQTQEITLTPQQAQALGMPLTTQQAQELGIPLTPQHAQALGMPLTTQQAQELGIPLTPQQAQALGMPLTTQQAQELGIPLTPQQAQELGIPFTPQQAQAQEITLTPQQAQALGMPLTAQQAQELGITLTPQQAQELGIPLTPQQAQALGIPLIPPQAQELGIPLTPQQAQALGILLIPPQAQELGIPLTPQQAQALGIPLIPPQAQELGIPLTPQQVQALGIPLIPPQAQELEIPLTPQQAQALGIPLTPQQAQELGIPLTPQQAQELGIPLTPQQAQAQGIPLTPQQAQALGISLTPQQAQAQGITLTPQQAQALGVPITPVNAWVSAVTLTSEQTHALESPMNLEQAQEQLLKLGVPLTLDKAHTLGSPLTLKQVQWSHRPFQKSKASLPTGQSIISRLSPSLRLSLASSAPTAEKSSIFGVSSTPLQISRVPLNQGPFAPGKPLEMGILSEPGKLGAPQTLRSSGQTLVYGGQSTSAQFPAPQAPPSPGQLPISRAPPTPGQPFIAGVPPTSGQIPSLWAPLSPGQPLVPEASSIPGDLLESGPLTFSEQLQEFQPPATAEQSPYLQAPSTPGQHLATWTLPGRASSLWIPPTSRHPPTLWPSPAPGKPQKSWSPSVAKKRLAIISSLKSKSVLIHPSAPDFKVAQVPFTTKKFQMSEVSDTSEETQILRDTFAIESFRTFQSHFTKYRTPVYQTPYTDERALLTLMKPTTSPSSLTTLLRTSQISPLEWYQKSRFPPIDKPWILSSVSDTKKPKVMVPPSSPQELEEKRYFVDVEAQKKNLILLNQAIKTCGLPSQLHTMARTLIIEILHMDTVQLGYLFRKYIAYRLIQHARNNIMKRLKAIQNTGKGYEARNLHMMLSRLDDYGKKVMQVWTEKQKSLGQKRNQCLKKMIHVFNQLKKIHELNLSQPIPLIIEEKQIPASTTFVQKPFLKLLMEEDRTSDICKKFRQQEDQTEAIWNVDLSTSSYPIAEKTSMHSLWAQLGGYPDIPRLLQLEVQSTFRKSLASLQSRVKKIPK
UniProt A2RUB6: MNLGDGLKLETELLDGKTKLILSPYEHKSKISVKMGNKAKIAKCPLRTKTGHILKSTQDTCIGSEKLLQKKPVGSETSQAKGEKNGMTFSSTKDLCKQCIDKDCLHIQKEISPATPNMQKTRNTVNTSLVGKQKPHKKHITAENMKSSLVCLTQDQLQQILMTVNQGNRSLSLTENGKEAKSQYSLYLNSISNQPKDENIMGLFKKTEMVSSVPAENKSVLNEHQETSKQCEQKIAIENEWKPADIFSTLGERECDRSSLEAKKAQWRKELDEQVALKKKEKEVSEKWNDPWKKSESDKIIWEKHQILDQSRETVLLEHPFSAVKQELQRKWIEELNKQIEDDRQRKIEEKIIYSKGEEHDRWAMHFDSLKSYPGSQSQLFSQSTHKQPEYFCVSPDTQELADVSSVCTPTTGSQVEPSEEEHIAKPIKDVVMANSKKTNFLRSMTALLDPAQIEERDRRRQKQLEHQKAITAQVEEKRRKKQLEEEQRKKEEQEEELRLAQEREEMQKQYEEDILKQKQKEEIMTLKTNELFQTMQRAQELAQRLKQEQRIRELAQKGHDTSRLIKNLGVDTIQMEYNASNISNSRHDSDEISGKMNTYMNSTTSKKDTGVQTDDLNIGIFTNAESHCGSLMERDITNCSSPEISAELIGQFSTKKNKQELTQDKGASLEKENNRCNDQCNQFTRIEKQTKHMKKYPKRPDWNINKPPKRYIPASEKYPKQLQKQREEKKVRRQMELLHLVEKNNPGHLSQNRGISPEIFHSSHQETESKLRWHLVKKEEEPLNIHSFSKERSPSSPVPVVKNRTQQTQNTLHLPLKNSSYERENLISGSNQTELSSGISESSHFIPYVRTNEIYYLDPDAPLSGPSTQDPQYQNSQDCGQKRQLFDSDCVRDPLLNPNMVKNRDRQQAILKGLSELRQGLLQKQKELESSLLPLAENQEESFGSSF
UniProt A6NGB9: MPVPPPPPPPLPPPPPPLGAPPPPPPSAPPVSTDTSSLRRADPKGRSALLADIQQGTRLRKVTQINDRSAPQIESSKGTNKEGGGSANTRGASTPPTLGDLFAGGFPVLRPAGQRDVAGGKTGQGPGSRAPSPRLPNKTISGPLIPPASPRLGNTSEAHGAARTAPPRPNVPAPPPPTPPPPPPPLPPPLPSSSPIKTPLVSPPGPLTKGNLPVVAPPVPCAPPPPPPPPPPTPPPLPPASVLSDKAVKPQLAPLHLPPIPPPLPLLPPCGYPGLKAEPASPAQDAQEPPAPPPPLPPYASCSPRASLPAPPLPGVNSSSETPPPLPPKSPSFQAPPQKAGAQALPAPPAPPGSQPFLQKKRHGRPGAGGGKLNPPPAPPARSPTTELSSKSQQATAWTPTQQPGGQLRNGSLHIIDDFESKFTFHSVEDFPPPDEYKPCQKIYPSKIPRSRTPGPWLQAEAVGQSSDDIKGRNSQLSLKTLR

The other results are listed elsewhere or left out. Most values lie at the level of the controls, where differences are scatter.
The targets below were run with Cc1nc(Nc2ncc(C(=O)Nc3c(C)cccc3Cl)s2)cc(N2CCN(CCO)CC2)n1 [dasatinib] (assay: log2 fold change of tryptic peptide abundance, ligand vs vehicle (limited proteolysis) (log2 ratio); higher = more trypsin-susceptible (destabilized)). Conditions: ligand concentration: 5 uM; sample: K562 cleared lysate.
In the case of “A0A3B3IU46 (peptide sequence: SWGNNYPQHR, peptide start residue: 86), A0A3B3IU46”, the log2 fold change is reported as -0.0542.
“ZSWIM8 (peptide sequence: AAAELALSCLPHAHALNPNEIQR, peptide start residue: 1357) (UniProt A7E2V4)” gave a log2 fold change of -0.251.
“PTPDC1 (peptide sequence: NIFSCCDPK, peptide start residue: 249) (UniProt A2A3K4)” was tested, and the log2 fold change was 0.559.
With “DDTL (peptide sequence: SHSAHFFEFLTK, peptide start residue: 76) (UniProt A6NHG4)” the log2 fold change was 0.135.
In the case of “UniProt A4D1E1 (peptide sequence: ANFYCELCDK, peptide start residue: 134)”, the log2 fold change is reported as -0.0986.
“A0AVF1 (peptide sequence: SHYQEAIDIYKR, peptide start residue: 165)” showed a log2 fold change of -0.0396.
For “RCCD1 (peptide sequence: TGELYTWGWGK, peptide start residue: 318) (UniProt A6NED2)”, the log2 fold change was -0.196.
Target “WDR91 (peptide sequence: LSPAQGPPQPQSSAKK, peptide start residue: 276) (UniProt A4D1P6)” has a log2 fold change of -0.633.
In the case of “CCDC88B (peptide sequence: AQELLLQSQR, peptide start residue: 1015) (UniProt A6NC98)”, the log2 fold change is reported as 0.0811.
With “UniProt A4QPH2 (peptide sequence: CGVSELEK, peptide start residue: 1812)” the log2 fold change was -0.205.
Work on “UniProt A2RTY3 (peptide sequence: WQRLRELTK, peptide start residue: 147)” yielded a log2 fold change of -0.0171.
For “A0A3B3IRV3 (peptide sequence: ESVSNCIQLK, peptide start residue: 9), A0A3B3IRV3”, the log2 fold change was -0.000712.
“UniProt A6NEC2 (peptide sequence: SKYTTPSGEVR, peptide start residue: 162)” gave a log2 fold change of 0.696.
In the case of “SBNO1 (peptide sequence: RLESLGALTHGDRR, peptide start residue: 1012) (UniProt A3KN83)”, the log2 fold change is reported as -0.933.
For “UniProt A6NI28 (peptide sequence: CLAEPLMTYK, peptide start residue: 463)”, the log2 fold change was 0.434.
In the case of “UniProt A4D2B8 (peptide sequence: AIKPIDRK, peptide start residue: 14)”, the log2 fold change is reported as 0.0203.
“FAM83G (peptide sequence: TGGSQWASSDSK, peptide start residue: 800) (UniProt A6ND36)” gave a log2 fold change of 0.762.
In the case of “CCDC144A (peptide sequence: FKNEVNTLEEEFLALKK, peptide start residue: 452) (UniProt A2RUR9)”, the log2 fold change is reported as 0.132.
Target “PGP (peptide sequence: GETAVPGAPEALR, peptide start residue: 42) (UniProt A6NDG6)” has a log2 fold change of 0.181.
Work on “FBLL1 (peptide sequence: IVALNAHTFLR, peptide start residue: 245) (UniProt A6NHQ2)” yielded a log2 fold change of 0.0433.
Work on “UniProt A6NCL7 (peptide sequence: KAEEAEKK, peptide start residue: 469)” yielded a log2 fold change of -0.178.
With “A0A1W2PR95 (peptide sequence: EYYLLHLQR, peptide start residue: 191), A0A1W2PR95” the log2 fold change was -0.275.
For “GTPBP10 (peptide sequence: QISVADLPGLIEGAHMNK, peptide start residue: 197) (UniProt A4D1E9)”, the log2 fold change was 0.266.
Work on “CRPPA (peptide sequence: VTSEALGHAGR, peptide start residue: 315) (UniProt A4D126)” yielded a log2 fold change of 0.333.
“A0A096LP55 (peptide sequence: EQCEQLEKCVKAR, peptide start residue: 35), A0A096LP55” gave a log2 fold change of -0.614.
With “UniProt A8K0S8 (peptide sequence: MPIDLVIEDR, peptide start residue: 68)” the log2 fold change was -0.154.
Work on “UniProt A6NE01 (peptide sequence: KILSRGTLWK, peptide start residue: 193)” yielded a log2 fold change of -0.0208.
“CCDC66 (peptide sequence: SPSSPVPVVK, peptide start residue: 794) (UniProt A2RUB6)” gave a log2 fold change of -0.581.
For “UniProt A6NJ78 (peptide sequence: FLLGISMTER, peptide start residue: 332)”, the log2 fold change was -0.241.
For “MEX3A (peptide sequence: VHQPGCKPLSTFR, peptide start residue: 323) (UniProt A1L020)”, the log2 fold change was 0.12.
“WIPF3 (peptide sequence: NGSLHIIDDFESK, peptide start residue: 410) (UniProt A6NGB9)” showed a log2 fold change of -0.374.
In the case of “A0A6I8PU40 (peptide sequence: LFLLLWHPALGAQARPPR, peptide start residue: 27), A0A6I8PU40”, the log2 fold change is reported as -0.0738.
For “A0AV96 (peptide sequence: GSYLGGYSAGR, peptide start residue: 395)”, the log2 fold change was 0.198.
For “ZFP92 (peptide sequence: QLPGADPQGGK, peptide start residue: 107) (UniProt A6NM28)”, the log2 fold change was 0.311.

— the supplement of paper PMC12819154, “High-throughput peptide-centric local stability assay extends protein–ligand identification to membrane proteins, tissues and bacteria” (Nature Structural & Molecular Biology, 2025)
